In the assay the target is T1, recombinant human methionine adenosyltransferase α2 (MATα2) (human, UniProt P31153 1-395).
T1 construct: human MATα2, pT7.7-MAT2A including the human MAT2A ORF; also called pT7.7-MAT2A; MATα2 homo-oligomers; source: extracts also named for the pull-down
Nature of the assay: pull-down; Glutathione-Sepharose loaded with GST-PDRG1 or truncated forms and washed; incubated 1 hour at 4°C with recombinant MATα2 or MATβ alone (purified, 100 μg; extracts also named in the methods) plus excess GST extract; blots with anti-MATα2 and anti-MATβ. The settings on record: both partners purified.

The values below come from PMC4993455 (PLoS ONE, 2016).

B1: GST-ΔC-PDRG1 (domain or fragment, rat)
chain: GIPEFLCGTMVSPEADRVLRYLVEVEELAEAVLSDKRQIVDLDTKRNQNREGLRALQKDPSVSEDVMVCFGNMFIKMPHLKTKEMIQKDQEHLDKEIERLRSQLKVKVNRLLEAQ
notes: 9 amino acid linker between GST and PDRG1, as in pGEX-PDRG1 from which this plasmid was made; rat PDRG1 with a new stop codon at position 321-323 of the ORF; also called pGEX-ΔC-PDRG1; source: E. coli BL21(DE3) Codon Plus, soluble extract loaded on Glutathione-Sepharose; not shown: GST, N-terminal, kept
For the molecule B1, the binding result is listed as “binds”.
